For two substances, binding results are on record in paper PMC5655238.

Protein sequences, listed by entry. Tags and fused reporters are not part of them. Lines headed by an entry give the natural chain unless they say otherwise; changes in a name come on top.
UniProt Q14457: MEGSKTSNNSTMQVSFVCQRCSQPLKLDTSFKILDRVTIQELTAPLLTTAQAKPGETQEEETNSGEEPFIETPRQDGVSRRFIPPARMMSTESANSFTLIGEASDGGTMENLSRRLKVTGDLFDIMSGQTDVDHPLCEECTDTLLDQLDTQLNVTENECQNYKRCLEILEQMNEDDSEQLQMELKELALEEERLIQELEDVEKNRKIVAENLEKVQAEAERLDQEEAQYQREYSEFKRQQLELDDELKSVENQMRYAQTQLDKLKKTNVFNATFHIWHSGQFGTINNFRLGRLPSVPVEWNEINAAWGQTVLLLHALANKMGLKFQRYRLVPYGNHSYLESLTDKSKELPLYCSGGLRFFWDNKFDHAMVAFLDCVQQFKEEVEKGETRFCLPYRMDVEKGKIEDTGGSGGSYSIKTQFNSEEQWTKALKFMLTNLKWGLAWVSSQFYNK
UniProt P10415: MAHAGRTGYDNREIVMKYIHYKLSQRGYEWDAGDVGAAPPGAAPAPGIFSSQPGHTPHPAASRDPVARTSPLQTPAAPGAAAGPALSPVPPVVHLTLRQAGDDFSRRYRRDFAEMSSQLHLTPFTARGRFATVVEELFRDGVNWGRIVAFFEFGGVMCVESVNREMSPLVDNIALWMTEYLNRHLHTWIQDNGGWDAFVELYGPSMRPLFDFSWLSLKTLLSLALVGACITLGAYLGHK

Results are given in words; binding and its absence hold for the method and conditions named. Binding seen in cells or lysates may run through a third protein. Some entries that bind do so weakly or less than the wild type.

Assay [1] addresses HA-tagged Beclin-1 (WT) (human (cDNA by RT-PCR from RNA of the cells)) (UniProt Q14457). The assay can be described thus: co-IP; BetA-treated IM-9/Bcl-2 cells transfected with HA-Beclin-1 (WT) or HA-Beclin-1 T119A with or without Flag-DAPK ΔCaM; precipitated with HA antibodies, co-precipitated proteins blotted.
In assay [2] the target is HA-tagged T119A Beclin-1 mutant (human (cDNA by RT-PCR from RNA of the cells)) (UniProt Q14457). Described as above.
Assay [3] has as its target Beclin-1 (human (endogenous in IM-9 and IM-9/Bcl-2)) (UniProt Q14457). Kind of assay: co-IP; IM-9/Bcl-2 cells in complete medium (control), with 10 μg/ml BetA (24 h) or EBSS (12 h); lysates precipitated with anti-Beclin 1 antibody and protein G-Sepharose, blotted for Bcl-2, Vps34 and Beclin 1.
For assay [4] the target is unchanged. Kind of assay: condition: only cells treated with 10 μg/ml BetA for 24 h (similar to starvation, EBSS 12 h); co-IP; as a1, IM-9/Bcl-2 cells treated with 10 μg/ml BetA for 24 h (EBSS starvation, 12 h, as autophagy control); anti-Beclin 1 precipitate blotted for Bcl-2.
For assay [5] the target is unchanged. The assay can be described thus: co-IP; IM-9 cells in complete medium (control), with 10 μg/ml BetA (24 h) or EBSS (12 h); lysates precipitated with anti-Beclin 1 antibody and protein G-Sepharose, blotted for Bcl-2, Vps34 and Beclin 1.

For “Bcl-2 (overexpressed in IM-9/Bcl-2 cells) (from UniProt P10415 1-239)”, the binding entry in assay [1] is “binds”; in assay [2], “binds”; in assay [3], “binds”; in assay [4], “no binding”.
For “Bcl-2 (endogenous in IM-9 cells) (from UniProt P10415 1-239)”, the binding result in assay [5] is listed as “binds”.
